This is one part of the list.
Compound: CC[C@@H]1C(=O)N(C)c2cnc(Nc3ccc(C(=O)NC4CCN(C)CC4)cc3OC)nc2N1C1CCCC1
Test: log2 fold change, soluble protein after heating vs DMSO (PISA); higher = thermal stabilisation; K562 cells, 10 uM, 30 min; active = over 0.2 and 3.5 SD of the protein, either way, in both replicates (recomputed)
How it was run: (§1)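 Soluble protein was defined as the supernatant after 21,000xg for 90 min. It came from K562 cells at 2×10^6 cells/mL given 10 μM compound for 30 min, heated in aliquots for 3 min across 48°C-58°C, pooled, and extracted in PBS with 0.5% NP-40 at 4°C, and was quantified by TMTpro 16plex LC-MS/MS with equalised channel sums. Thermal stability against control samples, from duplicates, is reported as log2 fold change.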

By UniProt entry, the sequences of proteins in these tests, tags left out. Where a name states a change or a piece, a line headed by the entry shows the natural chain unless it says otherwise.
UniProt Q9BRJ7: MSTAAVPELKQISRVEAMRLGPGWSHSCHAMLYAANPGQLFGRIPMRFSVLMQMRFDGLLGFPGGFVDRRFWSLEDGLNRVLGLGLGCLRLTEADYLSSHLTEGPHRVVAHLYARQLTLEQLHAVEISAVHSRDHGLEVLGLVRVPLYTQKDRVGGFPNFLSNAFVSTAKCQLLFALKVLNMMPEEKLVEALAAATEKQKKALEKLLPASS
UniProt P35658: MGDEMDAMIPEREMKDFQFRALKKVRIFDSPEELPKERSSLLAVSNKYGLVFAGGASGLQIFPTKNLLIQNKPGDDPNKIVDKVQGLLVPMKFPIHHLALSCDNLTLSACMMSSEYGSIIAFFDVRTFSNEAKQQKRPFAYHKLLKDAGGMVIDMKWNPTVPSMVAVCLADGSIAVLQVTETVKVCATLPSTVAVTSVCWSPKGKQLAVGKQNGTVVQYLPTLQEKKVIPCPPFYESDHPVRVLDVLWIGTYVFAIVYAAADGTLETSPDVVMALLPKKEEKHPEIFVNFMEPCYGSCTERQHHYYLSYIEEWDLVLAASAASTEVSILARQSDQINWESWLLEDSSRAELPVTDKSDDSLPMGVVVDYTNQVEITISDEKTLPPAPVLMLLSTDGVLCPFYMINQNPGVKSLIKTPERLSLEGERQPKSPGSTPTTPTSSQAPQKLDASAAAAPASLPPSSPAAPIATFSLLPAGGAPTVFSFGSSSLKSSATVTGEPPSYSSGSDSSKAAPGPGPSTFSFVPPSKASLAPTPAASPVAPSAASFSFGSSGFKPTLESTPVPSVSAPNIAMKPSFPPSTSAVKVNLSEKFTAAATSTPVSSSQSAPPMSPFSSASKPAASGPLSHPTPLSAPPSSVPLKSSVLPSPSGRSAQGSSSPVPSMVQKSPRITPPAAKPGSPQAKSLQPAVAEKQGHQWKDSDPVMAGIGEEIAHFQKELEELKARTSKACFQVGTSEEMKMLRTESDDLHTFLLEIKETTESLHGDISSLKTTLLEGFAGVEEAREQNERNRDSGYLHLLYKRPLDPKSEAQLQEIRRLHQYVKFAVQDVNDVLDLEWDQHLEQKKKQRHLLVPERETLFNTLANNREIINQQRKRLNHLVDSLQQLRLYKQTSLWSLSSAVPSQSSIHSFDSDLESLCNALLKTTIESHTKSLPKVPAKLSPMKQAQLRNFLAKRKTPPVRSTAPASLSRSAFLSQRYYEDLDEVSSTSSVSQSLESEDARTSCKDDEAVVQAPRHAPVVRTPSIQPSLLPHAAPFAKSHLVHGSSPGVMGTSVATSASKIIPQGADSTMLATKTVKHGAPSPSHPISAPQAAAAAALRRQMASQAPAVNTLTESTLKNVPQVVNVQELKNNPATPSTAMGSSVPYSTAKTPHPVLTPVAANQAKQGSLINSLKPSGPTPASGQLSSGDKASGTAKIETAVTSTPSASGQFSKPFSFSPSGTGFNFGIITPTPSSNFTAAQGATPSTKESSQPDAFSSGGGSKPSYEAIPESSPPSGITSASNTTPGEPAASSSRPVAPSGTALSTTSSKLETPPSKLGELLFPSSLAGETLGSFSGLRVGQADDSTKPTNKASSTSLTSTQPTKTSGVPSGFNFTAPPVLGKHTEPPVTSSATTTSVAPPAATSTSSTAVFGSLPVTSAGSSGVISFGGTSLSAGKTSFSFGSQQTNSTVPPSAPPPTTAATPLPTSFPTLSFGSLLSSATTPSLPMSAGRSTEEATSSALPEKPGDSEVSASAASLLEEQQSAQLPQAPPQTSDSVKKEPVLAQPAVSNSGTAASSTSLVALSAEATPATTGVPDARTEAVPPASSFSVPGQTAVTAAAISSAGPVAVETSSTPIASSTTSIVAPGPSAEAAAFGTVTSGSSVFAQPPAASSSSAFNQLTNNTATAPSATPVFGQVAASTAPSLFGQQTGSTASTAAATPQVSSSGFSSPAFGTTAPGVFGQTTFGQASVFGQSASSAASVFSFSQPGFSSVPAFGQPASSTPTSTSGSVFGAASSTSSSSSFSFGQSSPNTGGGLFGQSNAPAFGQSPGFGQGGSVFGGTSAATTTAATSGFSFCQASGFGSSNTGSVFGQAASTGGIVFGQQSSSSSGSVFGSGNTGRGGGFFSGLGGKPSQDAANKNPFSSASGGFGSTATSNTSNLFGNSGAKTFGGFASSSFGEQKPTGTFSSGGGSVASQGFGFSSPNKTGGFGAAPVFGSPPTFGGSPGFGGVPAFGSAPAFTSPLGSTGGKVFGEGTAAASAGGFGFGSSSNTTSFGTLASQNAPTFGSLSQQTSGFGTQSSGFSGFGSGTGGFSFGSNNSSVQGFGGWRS
UniProt O95989: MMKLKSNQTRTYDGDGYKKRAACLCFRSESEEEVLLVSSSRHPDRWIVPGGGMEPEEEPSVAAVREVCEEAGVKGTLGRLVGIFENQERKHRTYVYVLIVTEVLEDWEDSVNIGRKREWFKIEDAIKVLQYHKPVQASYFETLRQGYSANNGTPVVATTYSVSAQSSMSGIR
UniProt Q8NFH4: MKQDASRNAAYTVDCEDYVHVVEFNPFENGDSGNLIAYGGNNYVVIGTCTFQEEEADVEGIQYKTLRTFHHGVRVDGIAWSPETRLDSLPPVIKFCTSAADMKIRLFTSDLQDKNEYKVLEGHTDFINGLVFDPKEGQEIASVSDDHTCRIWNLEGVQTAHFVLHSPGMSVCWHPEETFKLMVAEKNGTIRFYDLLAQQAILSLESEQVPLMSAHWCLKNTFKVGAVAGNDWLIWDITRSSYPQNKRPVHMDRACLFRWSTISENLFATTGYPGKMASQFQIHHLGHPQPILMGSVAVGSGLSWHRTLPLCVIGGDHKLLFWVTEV
UniProt Q8N1F7: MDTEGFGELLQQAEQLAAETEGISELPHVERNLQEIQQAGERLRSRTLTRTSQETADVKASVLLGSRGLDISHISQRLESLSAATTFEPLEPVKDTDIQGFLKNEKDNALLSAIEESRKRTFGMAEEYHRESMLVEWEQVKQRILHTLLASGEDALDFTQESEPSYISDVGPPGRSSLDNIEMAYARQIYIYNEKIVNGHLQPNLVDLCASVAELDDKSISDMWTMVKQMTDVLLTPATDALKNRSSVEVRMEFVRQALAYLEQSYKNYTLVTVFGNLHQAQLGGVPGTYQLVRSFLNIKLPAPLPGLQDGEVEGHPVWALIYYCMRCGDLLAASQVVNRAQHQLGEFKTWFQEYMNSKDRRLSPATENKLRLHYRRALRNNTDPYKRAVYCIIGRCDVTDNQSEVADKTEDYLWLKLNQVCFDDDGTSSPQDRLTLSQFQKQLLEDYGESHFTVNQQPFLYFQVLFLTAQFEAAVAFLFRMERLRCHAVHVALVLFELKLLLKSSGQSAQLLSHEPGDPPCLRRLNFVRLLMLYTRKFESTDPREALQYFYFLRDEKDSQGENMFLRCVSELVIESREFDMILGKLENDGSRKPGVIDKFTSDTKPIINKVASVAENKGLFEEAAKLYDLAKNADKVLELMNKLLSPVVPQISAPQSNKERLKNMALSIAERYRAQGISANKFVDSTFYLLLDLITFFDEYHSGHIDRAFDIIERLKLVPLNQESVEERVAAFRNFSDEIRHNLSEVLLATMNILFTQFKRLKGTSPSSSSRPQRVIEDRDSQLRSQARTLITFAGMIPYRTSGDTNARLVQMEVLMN
UniProt Q02818: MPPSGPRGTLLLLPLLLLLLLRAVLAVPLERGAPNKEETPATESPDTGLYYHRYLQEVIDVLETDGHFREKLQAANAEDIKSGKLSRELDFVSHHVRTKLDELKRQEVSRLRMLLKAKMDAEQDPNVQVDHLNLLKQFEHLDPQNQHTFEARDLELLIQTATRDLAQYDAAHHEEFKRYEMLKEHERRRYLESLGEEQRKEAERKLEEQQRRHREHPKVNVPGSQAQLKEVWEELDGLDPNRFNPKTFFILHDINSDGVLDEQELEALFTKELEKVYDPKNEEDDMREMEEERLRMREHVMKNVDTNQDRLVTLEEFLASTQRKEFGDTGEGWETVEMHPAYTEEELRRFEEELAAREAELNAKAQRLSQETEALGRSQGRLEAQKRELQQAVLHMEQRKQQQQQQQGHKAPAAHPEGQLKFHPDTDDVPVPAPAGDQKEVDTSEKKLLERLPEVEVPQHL
UniProt Q8IVD9: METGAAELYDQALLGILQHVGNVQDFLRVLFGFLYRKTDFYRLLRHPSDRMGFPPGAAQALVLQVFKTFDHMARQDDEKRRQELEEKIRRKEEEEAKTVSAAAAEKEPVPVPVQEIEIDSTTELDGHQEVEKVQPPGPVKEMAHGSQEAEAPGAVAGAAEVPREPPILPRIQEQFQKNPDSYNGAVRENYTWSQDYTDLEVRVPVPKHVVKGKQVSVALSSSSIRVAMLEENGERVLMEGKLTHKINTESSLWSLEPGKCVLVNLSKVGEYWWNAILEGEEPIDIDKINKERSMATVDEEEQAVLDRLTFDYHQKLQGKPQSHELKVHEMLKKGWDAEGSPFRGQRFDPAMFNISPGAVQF
UniProt P07237: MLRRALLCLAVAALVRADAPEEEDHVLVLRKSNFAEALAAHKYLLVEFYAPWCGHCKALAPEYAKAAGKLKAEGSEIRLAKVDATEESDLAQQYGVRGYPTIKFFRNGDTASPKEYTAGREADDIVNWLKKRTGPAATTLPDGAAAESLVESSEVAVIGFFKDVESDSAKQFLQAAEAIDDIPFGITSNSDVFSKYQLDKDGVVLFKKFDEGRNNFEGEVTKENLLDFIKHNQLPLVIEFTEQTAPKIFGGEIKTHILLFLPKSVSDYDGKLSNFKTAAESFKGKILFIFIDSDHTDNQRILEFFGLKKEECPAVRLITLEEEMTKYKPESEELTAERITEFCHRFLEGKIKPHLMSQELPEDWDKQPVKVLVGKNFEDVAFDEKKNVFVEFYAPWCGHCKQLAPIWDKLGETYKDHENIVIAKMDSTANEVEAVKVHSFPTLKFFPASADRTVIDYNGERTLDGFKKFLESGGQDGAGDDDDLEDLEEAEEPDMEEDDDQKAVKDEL
UniProt P13674: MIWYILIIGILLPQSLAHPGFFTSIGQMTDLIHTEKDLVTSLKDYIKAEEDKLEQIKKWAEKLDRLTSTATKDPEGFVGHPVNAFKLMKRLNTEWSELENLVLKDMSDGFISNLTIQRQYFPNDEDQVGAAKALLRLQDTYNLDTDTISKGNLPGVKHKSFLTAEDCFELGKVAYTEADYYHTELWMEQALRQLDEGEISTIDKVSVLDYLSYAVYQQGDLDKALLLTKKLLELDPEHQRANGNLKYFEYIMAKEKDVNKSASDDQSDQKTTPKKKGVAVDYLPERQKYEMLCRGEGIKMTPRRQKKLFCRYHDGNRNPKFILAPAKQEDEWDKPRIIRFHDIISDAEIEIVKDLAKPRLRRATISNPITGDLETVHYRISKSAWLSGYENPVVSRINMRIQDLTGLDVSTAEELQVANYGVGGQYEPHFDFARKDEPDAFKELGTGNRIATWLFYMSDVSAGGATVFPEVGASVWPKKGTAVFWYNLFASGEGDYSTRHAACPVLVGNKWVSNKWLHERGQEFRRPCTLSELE
UniProt P00480: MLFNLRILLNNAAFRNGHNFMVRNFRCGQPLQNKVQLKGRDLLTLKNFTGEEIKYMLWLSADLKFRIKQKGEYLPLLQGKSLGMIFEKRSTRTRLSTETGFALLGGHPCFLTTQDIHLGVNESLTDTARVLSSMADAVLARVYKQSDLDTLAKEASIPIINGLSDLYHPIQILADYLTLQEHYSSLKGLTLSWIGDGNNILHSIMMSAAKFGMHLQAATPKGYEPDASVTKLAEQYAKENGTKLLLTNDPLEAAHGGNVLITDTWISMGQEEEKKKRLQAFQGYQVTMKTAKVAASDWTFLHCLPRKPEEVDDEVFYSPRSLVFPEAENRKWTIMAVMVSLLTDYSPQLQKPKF
UniProt Q9UKX7: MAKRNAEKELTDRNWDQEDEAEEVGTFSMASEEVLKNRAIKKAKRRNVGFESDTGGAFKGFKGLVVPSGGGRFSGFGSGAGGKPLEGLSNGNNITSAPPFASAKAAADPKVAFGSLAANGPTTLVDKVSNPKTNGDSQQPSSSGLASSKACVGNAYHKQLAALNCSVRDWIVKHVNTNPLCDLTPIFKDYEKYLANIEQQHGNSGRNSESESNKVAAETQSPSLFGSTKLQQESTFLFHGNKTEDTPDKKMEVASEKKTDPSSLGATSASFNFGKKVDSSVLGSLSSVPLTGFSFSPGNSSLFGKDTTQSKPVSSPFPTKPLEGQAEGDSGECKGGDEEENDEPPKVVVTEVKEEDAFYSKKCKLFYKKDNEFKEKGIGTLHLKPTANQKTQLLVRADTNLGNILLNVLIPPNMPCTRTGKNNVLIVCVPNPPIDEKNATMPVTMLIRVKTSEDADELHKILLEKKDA
UniProt Q9Y5N6: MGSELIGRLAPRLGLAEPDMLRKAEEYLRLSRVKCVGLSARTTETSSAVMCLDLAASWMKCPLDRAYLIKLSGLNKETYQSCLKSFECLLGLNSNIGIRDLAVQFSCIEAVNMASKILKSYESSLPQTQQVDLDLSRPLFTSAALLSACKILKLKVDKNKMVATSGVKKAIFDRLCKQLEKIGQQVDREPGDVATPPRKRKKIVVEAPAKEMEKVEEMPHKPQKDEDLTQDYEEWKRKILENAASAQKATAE

Target | log2 fold change
NUDT16L1 (UniProt Q9BRJ7) | inactive: 0.013
NUDCD1 (UniProt Q96RS6) | inactive: -0.046
NUP214 isoform 5 (UniProt P35658) | inactive: -0.057
ORC3 (UniProt Q9UBD5) | inactive: -0.167
OMA1 (UniProt Q96E52) | inactive: 0.034
OXCT1 (UniProt P55809) | inactive: 0.035
NSRP1 (UniProt Q9H0G5) | inactive: 0.115
NUDT3 (UniProt O95989) | inactive: -0.056

Compound: CC[C@@H]1C(=O)N(C)c2cnc(Nc3ccc(C(=O)N[C@H]4CC[C@H](N5CCN(CC6CC6)CC5)CC4)cc3OC)nc2N1C(C)C [volasertib]
Test: as above
How it was run: as §1

Target | log2 fold change
NSUN6 (UniProt Q8TEA1) | inactive: 0.001
NT5C (UniProt Q8TCD5) | inactive: 0.07
NUP37 (UniProt Q8NFH4) | inactive: -0.156
NUP93 (UniProt Q8N1F7) | inactive: -0.206
OSBPL6 isoform 5 (UniProt Q9BZF3) | inactive: 0.173
NUCB1 (UniProt Q02818) | inactive: 0.074
NUDCD3 (UniProt Q8IVD9) | inactive: -0.238
P4HB (UniProt P07237) | inactive: 0.077
P4HA1 (UniProt P13674) | inactive: -0.011
OTC (UniProt P00480) | inactive: 0.183
OS9 (UniProt Q13438) | inactive: -0.02
NUP133 (UniProt Q8WUM0) | inactive: -0.036
NUP50 (UniProt Q9UKX7) | inactive: 0.084
NUCB2 (UniProt P80303) | inactive: 0.06
ORC6 (UniProt Q9Y5N6) | inactive: -0.181

Quoted from the entries so far for reference:
Target | log2 fold change
OTC (UniProt P00480) | inactive: 0.183
OS9 (UniProt Q13438) | inactive: -0.02
NUP133 (UniProt Q8WUM0) | inactive: -0.036
NUP50 (UniProt Q9UKX7) | inactive: 0.084

Reference: the supplement of paper PMC10849652
